Results reported in PubChem BioAssay AID504444 (National Center for Advancing Translational Sciences (NCATS), 2011).
Where “and” joins values, the source holds several entries; their conditions need not be identical. Equal entries are not always repeated. About 7,500 (2.1%) of roughly 360,000 compounds were called active. The inconclusive results got no clear call from the source; some entries with a clear call stand among them for comparison. Calls come from the whole dose curve; as a rule, active = well fitted inhibition curve with a large enough effect; inconclusive = small, poorly fitted or top-dose-only effect, or effect the other way; inactive = flat fitted curve, though single readings scatter. Where the call is inconclusive, the potency comes from a doubtful curve fit.

experiment: Nrf2 qHTS screen for inhibitors; details: A549 ARE-Fluc reporter, luciferase luminescence, 18-24 h; activity change, negative = inhibition: at 46 µM (top of the series); note: nearly all actives have a fitted effect of over 60% in size
Summary of the method: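 Quantitative HTS in A549 cells stably bearing an antioxidant response element-firefly luciferase construct. Inhibition of Nrf2-driven transcription was scored by luminescence after 18-24 h of compound exposure at 37 °C.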
% is set by controls: 0 for no effect and ±100 for the full control effect; potency is the fitted concentration of half-maximal effect.

SMILES | Potency | activity change, negative = inhibition
COc1cc(C2NC(=O)NC(C)=C2C(=O)Nc2cc(C)cc(C)c2)ccc1O (stereo not drawn) | inactive | –
C/C(=N\N=C\c1ccc(N(C)C)cc1)c1cccc([N+](=O)[O-])c1 | inconclusive: 20.6 µM [activator, single point] | –
Cc1cc(C)c(NC(=O)CS(=O)CC(=O)N2CCN(c3cccc(C)c3C)CC2)c(C)c1 (stereo not drawn) | inconclusive: 23.1 µM [falling, partial curve, poor fit] | –
c1coc(CNc2nc(N3CCCCC3)nc3ccccc23)c1 | inconclusive: 11.6 µM [falling, single point] | –
CC(=O)c1sc(N/N=C\c2cccc(Br)c2)nc1C | inactive | –
CN(C)c1ccc(/C=C/c2ccc3c4ccccc4ccc3[n+]2-c2ccccc2)cc1 | active: 1.84 µM and active: 3.66 µM | –
COc1ccc(Oc2nc3c(c(=O)n(C)c(=O)n3C)n2Cc2cccc(OC)c2)cc1 | inactive | –
S=C(NCc1ccccc1)NC1CCSc2ccccc21 (stereo not drawn) | inconclusive: 18.4 µM [falling, single point] | –
CCn1c2ccccc2c2cc(C3C(C#N)=C(N)Oc4n[nH]c(COC)c43)ccc21 (stereo not drawn) | inconclusive: 23.1 µM [falling, partial curve, poor fit] | –
COCCNC(=O)c1ccccc1NC(=O)c1cccc([N+](=O)[O-])c1C | inactive | –
Cc1ccc(N/N=C(\C#N)C(=N)N2CCCCCC2)cc1 | inconclusive: 0.411 µM [activator, partial curve, poor fit] | –
Clc1ccccc1OCCCCn1ccnc1 | inconclusive: 11.6 µM [falling, partial curve, poor fit] | –
Cc1cccc(NC(=O)c2ccc(NC(=O)c3ccccc3Br)cc2)c1 | inconclusive: 20.6 µM [falling, single point] | –
CN1CC(c2ccccc2)C2(SC(=S)N(Cc3ccco3)C2=O)C12C(=O)Nc1ccccc12 (stereo not drawn) | active: 11.6 µM | –
CC1Sc2ccc(S(=O)(=O)N3CCC(C(=O)NCc4ccc(Cl)cc4)CC3)cc2NC1=O (stereo not drawn) | inconclusive: 29.1 µM [falling, single point] | –
CS(=O)(=O)c1cnc2c(S(=O)(=O)c3ccccc3)cnn2c1N | inconclusive: 7.31 µM [falling, partial curve] | –
N#CC1=C(N)Oc2c(O)cc3ccccc3c2C1c1ccsc1 (stereo not drawn) | inactive | –
O=C(NCC1CCCO1)c1ccc(COCC(F)(F)C(F)F)cc1 (stereo not drawn) | inconclusive: 29.1 µM [activator, single point] | –
Cc1ccc(NC(=O)CN2CCCN(Cc3cc(C)ccc3C)S2(=O)=O)c(Cl)c1 | inconclusive: 29.1 µM [falling, single point] | –
COc1ccc(CNC(=O)CCNC(=O)N2CCn3c2nc2ccccc23)cc1 | inactive | –
COc1cccc(N2CCN(C(=O)C3CCC(CNS(=O)(=O)c4ccc(Br)s4)CC3)CC2)c1 (stereo not drawn) | active: 16.4 µM | –
COc1ccccc1NC(=O)c1cc(N2C(=O)C3C4CCC(C4)C3C2=O)ccc1Cl (stereo not drawn) | inconclusive: 1.64 µM [falling, partial curve, poor fit] | –
N#CCC(=O)Nc1ccc(C(=O)OCC(=O)NC(=O)Nc2ccc3c(c2)OCCO3)cc1 | inconclusive: 20.6 µM [activator, single point] | –

SMILES | Potency | activity change, negative = inhibition
CCn1c(=O)c(C(=O)NNS(=O)(=O)c2ccc(Br)cc2)c(O)c2ccccc21 | inconclusive: 16.4 µM [falling, single point] | –
COCCCNC(=O)Cn1c(=O)n(-c2ccc(C)cc2)c(=O)c2c1c1cc(C)ccc1n2C | inactive | –
c1csc(CNc2ncnc3ccc(-c4ccc5c(c4)OCO5)cc23)c1 | inconclusive: 29.1 µM [activator, single point] | –
O=c1cc(-c2ccccc2)oc2cc(O)cc(O)c12 | inactive | –
CCOC(=O)N1CCN(c2ncnc3scc(-c4ccc(Cl)cc4)c23)CC1 | inconclusive: 18.4 µM [falling, partial curve, poor fit] | –
CNC(=S)N(C1=NCC(c2ccc([N+](=O)[O-])cc2)S1)c1ccccc1 (stereo not drawn) | inconclusive: 29.1 µM [activator, single point] | –
Cc1cc(C(=O)N/N=C/c2cc(Br)ccc2OC(=O)c2ccccc2)n[nH]1 | inconclusive: 29.1 µM [falling, single point] | –
COc1cccc(C(=O)NCCCNC(=O)c2ccco2)c1 | inconclusive: 2.31 µM [falling, partial curve, poor fit] | –
O=C(O)/C=C/S(=O)(=O)c1ccc2ccccc2c1 | inactive | –
CCCc1nc2ccccc2c(C(=O)OCC(=O)N2CCc3ccccc32)c1CC | inconclusive: 18.4 µM [falling, single point] | –
Cc1ccc(S(=O)(=O)Nc2nc3ccccc3s2)cc1[N+](=O)[O-] | inconclusive: 29.1 µM [falling, single point] | –
CCN(CC)S(=O)(=O)c1cc(C(=O)Nc2cccnc2Cl)ccc1Cl | inconclusive: 23.1 µM [falling, partial curve] | –
O=C(CCNC(=O)N1CC(=O)Nc2ccccc21)Nc1ccc(Br)cc1F | inconclusive: 23.1 µM [falling, partial curve, poor fit] | –
O=C(Nc1cc(Cl)ccc1N1CCOCC1)c1cccnc1 | inactive | –
Oc1cccc(/C=N/Nc2cccc3cccnc23)c1 | inconclusive: 25.9 µM [activator, single point] | –
Cc1ccc2cc(NC(=O)c3ccccc3C)ccc2n1 | inactive | –
CCCOc1ccc(C(=O)N(Cc2ccccc2Cl)C2CCS(=O)(=O)C2)cc1 (stereo not drawn) | inactive | –
COC(=O)c1ccccc1NC(=O)c1cnc(Nc2ccc(OC)cc2)c2ccccc12 | – | inactive: -14.8% [at 9.27 µM]
CCOC(=O)C(=O)N(Nc1ccc(C)cc1)c1ccc(C)cc1 | inconclusive: 9.2 µM [activator, partial curve] | –
CCn1nc(NC(=O)c2ccco2)c2cc3cc(C)ccc3nc21 | inconclusive: 20.6 µM [falling, single point] | –
NC(N)=N/N=C/c1ccc(OCc2ccccc2)c(OCc2ccccc2)c1 | inactive | –
CCc1ccc(-c2cc(C)no2)cc1S(=O)(=O)N1CCOc2ccc(C)cc21 | active: 13 µM | –
CCSc1cc(C)nc2c(-c3ccccc3)cnn12 | inconclusive: 6.51 µM [activator, partial curve] | –

SMILES | Potency | activity change, negative = inhibition
O=C(NNS(=O)(=O)c1ccc(F)cc1)c1ccccc1 | inconclusive: 29.1 µM [falling, single point] | –
c1ccc(-c2nnc(CSc3nnc(-c4cccs4)o3)o2)cc1 | inconclusive: 16.4 µM [falling, partial curve] | –
Cc1cnc2c3c(cc(Cl)c2c1)-c1ccccc1S(=O)(=O)N3 | active: 6.51 µM | –
COc1cc(OC)cc(C(=O)NC2CCN(Cc3nnnn3Cc3ccc(F)cc3)CC2)c1 | inconclusive: 18.4 µM [falling, partial curve] | –
CCOC(=O)/C(=N\Nc1ccc(Cl)cc1)c1csc(Nc2ccccc2)n1 | active: 16.4 µM | –
CCc1cccc(CC)c1NC(=S)Nc1cccc(Cl)c1Cl | inactive | –
C#C[C@]1(O)CC[C@H]2[C@@H]3CCc4cc(O)ccc4[C@H]3CC[C@@]21C | inactive | –
CCCCN(CCCC)CCC(O)c1cc2c(Cl)cc(Cl)cc2c2cc(C(F)(F)F)ccc12 (stereo not drawn) | inconclusive: 0.13 µM [activator, full curve, poor fit] | –
COc1ccc(CNC(=O)CSc2ncc3c(n2)-c2ccc(Cl)cc2N(Cc2ccc(F)cc2)S3(=O)=O)cc1OC | inconclusive: 9.2 µM [activator, partial curve, poor fit] | –
O=C(C1CCN(S(=O)(=O)c2ccccc2)CC1)N1CCCCCC1 | inactive | –
CCNc1c(C(=O)O)ccc2c1C(=O)c1ccccc1C2=O | inconclusive: 29.1 µM [falling, single point] | –
O=C1NC[C@H](Cc2ccccc2)N(C[C@H]2CCCN2C[C@H](Cc2ccccc2)N2C[C@H](Cc3ccccc3)N(CC3CCCCCC3)C(=O)C2=O)C1=O | inconclusive: 29.1 µM [falling, single point] | –
COc1ccc(Cn2c(C(=O)O)c(CNCc3ccco3)c3ccc(OC)cc32)cc1 | inconclusive: 20.6 µM [falling, single point] | –
COc1cccc(CN(C)C(=O)c2cccc(S(=O)(=O)N3CCN(c4ccccc4)CC3)c2)c1OC | active: 7.31 µM | –
COc1cc(OC)c(OC)cc1CNC(=O)c1cc(=O)c2ccccc2o1 | inconclusive: 18.4 µM [falling, partial curve, poor fit] | –
c1ccc2c(CSc3ncnc4nc[nH]c34)cccc2c1 | inconclusive: 29.1 µM [falling, single point] | –
CCOCCCNC(=S)N1CCCN(c2nc3cc(C)c(C)cc3cc2C#N)CC1 | inconclusive: 18.4 µM [falling, partial curve] | –
COc1cccc(C(=O)NC2CCN(C(=O)N3c4ccccc4Sc4ccccc43)CC2)c1 | inconclusive: 18.4 µM [falling, single point] | –
O=C(CSc1cnc2ccccc2n1)c1ccc(F)cc1 | inconclusive: 14.6 µM [activator, partial curve] | –
CC(C)c1ccc(OCc2ccc(C(=O)N(C)C)o2)cc1 | inconclusive: 2.59 µM [activator, full curve] | –
Cc1ccc(CCNC(=O)CCCn2c(=O)c3ccccc3n(Cc3ccccc3C)c2=O)cc1 | inactive | –
COc1ccc(C)cc1Nc1n[n+](-c2ccccc2)c(-c2ccc(N(C)C)cc2)s1 | inconclusive: 32.6 µM [falling, single point] | –

Taken from above:
O=C1NC[C@H](Cc2ccccc2)N(C[C@H]2CCCN2C[C@H](Cc2ccccc2)N2C[C@H](Cc3ccccc3)N(CC3CCCCCC3)C(=O)C2=O)C1=O – Potency: inconclusive: 29.1 µM [falling, single point]
COc1cccc(CN(C)C(=O)c2cccc(S(=O)(=O)N3CCN(c4ccccc4)CC3)c2)c1OC – Potency: active: 7.31 µM
Cc1cnc2c3c(cc(Cl)c2c1)-c1ccccc1S(=O)(=O)N3 – Potency: active: 6.51 µM
COc1cc(OC)c(OC)cc1CNC(=O)c1cc(=O)c2ccccc2o1 – Potency: inconclusive: 18.4 µM [falling, partial curve, poor fit]
